These are yes or no findings as the source states them, for the method shown. Some results given as binding are weak or reduced against the parent protein; the word gives no strength. Tags and fused reporters may be left off the sequences shown.
Experiments:
[1] = biological target: T1, EcoP15I Res subunit with C-terminal Avi-tag, biotinylated (Escherichia coli) (UniProt Q5ZND2); test: native MS; EcoPI and biotinylated EcoP15I with specific 50-mer DNA; data not shown; both purified
T1 sequence (chain, biotin on the Avi-tag (co-expressed biotin ligase)): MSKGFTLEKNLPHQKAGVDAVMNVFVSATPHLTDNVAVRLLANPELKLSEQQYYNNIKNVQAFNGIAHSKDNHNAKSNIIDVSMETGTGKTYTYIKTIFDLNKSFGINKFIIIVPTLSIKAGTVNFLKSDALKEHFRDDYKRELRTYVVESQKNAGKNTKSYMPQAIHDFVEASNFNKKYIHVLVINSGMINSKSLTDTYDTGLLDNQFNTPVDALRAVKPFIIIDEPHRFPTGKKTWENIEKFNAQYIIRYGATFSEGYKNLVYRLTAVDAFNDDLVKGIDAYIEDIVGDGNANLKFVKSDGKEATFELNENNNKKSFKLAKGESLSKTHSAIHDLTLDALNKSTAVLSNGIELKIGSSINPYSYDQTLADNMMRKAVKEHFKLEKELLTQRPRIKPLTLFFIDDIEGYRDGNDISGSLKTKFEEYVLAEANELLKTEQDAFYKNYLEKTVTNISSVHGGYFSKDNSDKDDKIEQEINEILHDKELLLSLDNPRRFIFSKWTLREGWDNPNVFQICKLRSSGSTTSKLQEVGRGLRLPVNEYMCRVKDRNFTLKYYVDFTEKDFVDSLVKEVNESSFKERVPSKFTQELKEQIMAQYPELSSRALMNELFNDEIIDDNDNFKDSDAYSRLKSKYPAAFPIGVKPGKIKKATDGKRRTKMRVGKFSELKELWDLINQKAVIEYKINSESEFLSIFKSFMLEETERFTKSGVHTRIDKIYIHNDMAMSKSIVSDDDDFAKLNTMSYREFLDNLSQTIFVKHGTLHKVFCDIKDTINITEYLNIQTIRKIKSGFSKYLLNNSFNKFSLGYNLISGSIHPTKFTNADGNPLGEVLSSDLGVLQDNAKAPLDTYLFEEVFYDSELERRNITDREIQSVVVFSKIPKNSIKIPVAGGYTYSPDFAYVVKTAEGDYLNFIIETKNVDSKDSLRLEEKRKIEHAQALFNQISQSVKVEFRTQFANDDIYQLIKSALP

[2] = biological target: T2, EcoP15I Res subunit (wild type, untagged) (Escherichia coli) (UniProt Q5ZND2); test: SEC + other: heparin chromatography; enzyme samples with sDNA and ATP, fractions run on SDS–PAGE gels; data not shown; both purified
T2 sequence: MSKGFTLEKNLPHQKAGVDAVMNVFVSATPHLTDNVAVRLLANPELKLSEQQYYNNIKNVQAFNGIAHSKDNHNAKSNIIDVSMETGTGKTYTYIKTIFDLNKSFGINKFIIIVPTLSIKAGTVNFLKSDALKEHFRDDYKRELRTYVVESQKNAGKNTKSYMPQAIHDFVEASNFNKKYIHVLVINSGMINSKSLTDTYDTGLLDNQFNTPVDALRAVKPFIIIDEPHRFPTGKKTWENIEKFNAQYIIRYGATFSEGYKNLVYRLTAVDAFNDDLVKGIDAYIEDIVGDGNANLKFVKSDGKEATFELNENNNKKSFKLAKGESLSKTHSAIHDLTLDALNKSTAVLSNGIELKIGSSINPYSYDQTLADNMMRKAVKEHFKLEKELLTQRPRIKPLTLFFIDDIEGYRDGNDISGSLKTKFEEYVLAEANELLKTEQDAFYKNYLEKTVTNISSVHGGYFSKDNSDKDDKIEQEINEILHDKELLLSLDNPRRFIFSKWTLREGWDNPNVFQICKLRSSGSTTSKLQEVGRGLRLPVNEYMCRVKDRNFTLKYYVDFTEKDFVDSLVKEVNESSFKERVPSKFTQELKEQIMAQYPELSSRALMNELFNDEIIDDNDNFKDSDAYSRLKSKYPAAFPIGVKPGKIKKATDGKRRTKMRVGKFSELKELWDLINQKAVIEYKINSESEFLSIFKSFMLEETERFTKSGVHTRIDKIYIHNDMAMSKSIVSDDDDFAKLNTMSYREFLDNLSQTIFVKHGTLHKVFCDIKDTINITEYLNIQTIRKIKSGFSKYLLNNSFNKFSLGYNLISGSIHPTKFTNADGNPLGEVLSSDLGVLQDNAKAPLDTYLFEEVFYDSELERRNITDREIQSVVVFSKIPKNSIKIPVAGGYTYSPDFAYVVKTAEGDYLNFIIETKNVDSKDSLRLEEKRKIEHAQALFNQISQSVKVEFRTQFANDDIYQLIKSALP

[3] = biological target: T2, EcoP15I Res subunit (wild type, untagged) (Escherichia coli); test: SEC-MALS; repeated in modified NEBuffer4: 20 mM Tris–acetate, pH 7.9, 10 mM CaCl2, 50 mM potassium acetate and 1 mM DTT; data not shown; both purified
[4] = biological target: T1, EcoP15I Res subunit with C-terminal Avi-tag, biotinylated (Escherichia coli); test: SEC-MALS; 0.5–1.0 mg/ml (1.25–2.5 µM) enzyme, Superdex 200, Standard Assay Buffer minus BSA (50 mM Tris–HCl pH 8.0, 50 mM KCl, 10 mM MgCl2, 1 mM DTT), room temperature; enzyme alone or with excess Hex-labelled specific 50-mer DNA, with or without 1 mM ATP; both purified

Measured: binding

B1: EcoP15I Mod subunit (untagged) (enzyme, Escherichia coli, UniProt P12364 1-644, looked up)
chain: MKKETIFSEVETANSKQLAVLKANFPQCFDKNGAFIQEKLLEIIRASEVELSKESYSLNWLGKSYARLLANLPPKTLLAEDKTHNQQEENKNSQHLLIKGDNLEVLKHMVNAYAEKVKMIYIDPPYNTGKDGFVYNDDRKFTPEQLSELAGIDLDEAKRILEFTTKGSSSHSAWLTFIYPRLYIARELMREDGTIFISIDHNEFSQLKLVCDEIFGEQNHVGDLVWKNATDNNPSNIAVEHEYIIVYTKNKEQLISEWKSNISDVKNLLVNIGEEFASKYTGNELQEKYTQWFREHRSELWPLDRYKYIDKDGIYTGSQSVHNPGKEGYRYDIIHPKTKKPCKQPLMGYRFPLDTMDRLLSEEKIIFGDDENKIIELKVYAKDYKQKLSSVIHLDGRVATNELKELFPEMTQPFTNAKTIKLVEDLISFACDGEGIVLDFFAGSGTTAHTVFNLNNKNKTSYQFITVQLDEPTKDKSDAMKHGYNTIFDLTKERLIRASKKNRDQGFKVYQLMPDFRAKDESELTLSNHTFFDDVVLTPEQYDTLLTTWCLYDGSLLTTPIEDVDLGGYKAHLCDGRLYLIAPNFTSEALKALLQKVDSDKDFAPNKVVFYGSNFESAKQMELNEALKSYANKKSIELDLVVRN
notes: Mod (modification) subunit of the Type III restriction endonuclease EcoP15I, Escherichia coli; also called Mod2 (as dimer); source: with biotinylated Res: avidin resin, Mono-Q
binds: [1] | [2] | [3] | [4]
